No constants are given. Whether binding was seen depends on the method and setting. In cells and extracts the contact can be indirect. Some binding calls cover weakened binding; strength is not graded here.
Molecular target: T1, RTP801 (endogenous, NGF-differentiated PC12 cells) (rat (endogenous in PC12)) (UniProt Q8VHZ9)
T1 sequence: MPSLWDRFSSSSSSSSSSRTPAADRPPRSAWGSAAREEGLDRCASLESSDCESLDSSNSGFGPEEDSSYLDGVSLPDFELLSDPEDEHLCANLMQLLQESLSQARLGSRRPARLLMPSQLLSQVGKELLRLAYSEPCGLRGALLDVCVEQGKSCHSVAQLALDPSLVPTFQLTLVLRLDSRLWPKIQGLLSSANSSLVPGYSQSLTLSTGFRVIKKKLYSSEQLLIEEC
Assay: co-IP; endogenous proteins in NGF-differentiated PC12 cells; 1 μM epoxomicin for 2 hours, then the cross-linker DSP at 4°C for 2 hours before harvesting; RTP801 immunoprecipitated with anti-RTP801 antibody on protein A-agarose; washed with CHAPS buffer; blot with anti-NEDD4

Chains of the proteins cited; added tags and fusions are not shown.
UniProt Q62940: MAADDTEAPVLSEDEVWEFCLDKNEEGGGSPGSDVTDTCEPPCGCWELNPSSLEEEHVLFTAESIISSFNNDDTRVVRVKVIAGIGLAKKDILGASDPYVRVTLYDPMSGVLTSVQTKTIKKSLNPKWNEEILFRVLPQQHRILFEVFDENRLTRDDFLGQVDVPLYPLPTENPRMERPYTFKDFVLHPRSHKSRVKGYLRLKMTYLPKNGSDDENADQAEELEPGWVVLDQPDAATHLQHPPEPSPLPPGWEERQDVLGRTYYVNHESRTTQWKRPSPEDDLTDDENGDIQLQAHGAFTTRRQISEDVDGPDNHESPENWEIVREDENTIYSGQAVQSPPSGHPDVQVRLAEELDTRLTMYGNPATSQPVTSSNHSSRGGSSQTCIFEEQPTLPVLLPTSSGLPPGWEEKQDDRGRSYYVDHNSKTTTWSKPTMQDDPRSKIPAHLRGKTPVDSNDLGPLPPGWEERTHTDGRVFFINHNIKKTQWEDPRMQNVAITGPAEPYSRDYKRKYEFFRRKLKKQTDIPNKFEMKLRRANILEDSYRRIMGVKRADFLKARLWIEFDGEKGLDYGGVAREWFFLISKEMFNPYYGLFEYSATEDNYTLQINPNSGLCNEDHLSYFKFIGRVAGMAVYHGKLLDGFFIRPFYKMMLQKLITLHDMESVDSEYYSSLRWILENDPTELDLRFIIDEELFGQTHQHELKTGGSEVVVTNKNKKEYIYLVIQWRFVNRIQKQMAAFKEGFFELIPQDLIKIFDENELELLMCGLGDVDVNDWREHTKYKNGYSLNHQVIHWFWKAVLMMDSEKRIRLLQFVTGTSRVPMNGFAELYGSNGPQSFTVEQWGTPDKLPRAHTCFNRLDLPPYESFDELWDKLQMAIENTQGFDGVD

**Q.** How did the binding turn out when “NEDD4 (endogenous, NGF-differentiated PC12 cells) (from UniProt Q62940 1-887) (enzyme)” was run?
**A.** Its binding is “binds”.

Reference: article PMC5312278
